Results: the supplement of paper PMC10849652
Some of the results follow.

By UniProt entry, the sequences of proteins in these tests, tags left out. Where a name states a change or a piece, a line headed by the entry shows the natural chain unless it says otherwise.
UniProt O94855: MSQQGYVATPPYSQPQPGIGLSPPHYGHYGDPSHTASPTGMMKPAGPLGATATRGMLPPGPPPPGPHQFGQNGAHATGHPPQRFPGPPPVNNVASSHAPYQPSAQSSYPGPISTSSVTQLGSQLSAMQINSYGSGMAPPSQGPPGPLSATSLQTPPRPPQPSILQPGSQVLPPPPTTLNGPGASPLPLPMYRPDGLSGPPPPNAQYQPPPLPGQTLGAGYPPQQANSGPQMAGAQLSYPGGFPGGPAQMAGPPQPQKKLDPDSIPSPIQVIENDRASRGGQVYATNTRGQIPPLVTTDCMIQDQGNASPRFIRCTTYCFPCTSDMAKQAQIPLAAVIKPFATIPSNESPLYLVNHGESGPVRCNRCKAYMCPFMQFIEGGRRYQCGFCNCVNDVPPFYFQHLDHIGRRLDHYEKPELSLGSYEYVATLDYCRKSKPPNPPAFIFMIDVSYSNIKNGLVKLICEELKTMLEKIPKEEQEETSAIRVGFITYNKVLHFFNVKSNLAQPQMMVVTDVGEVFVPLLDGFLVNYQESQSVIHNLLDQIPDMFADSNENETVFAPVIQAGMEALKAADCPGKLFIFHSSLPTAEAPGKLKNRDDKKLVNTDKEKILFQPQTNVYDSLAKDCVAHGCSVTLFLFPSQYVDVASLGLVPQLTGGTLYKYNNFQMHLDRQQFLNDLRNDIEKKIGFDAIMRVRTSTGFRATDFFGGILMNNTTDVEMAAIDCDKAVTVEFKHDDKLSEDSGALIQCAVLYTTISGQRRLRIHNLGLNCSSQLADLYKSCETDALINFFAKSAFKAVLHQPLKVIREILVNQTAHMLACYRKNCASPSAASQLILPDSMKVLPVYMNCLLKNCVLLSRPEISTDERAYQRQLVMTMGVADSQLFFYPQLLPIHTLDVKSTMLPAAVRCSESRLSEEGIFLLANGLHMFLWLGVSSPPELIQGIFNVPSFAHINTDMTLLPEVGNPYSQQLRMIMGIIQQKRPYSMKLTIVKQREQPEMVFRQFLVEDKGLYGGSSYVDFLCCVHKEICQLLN
UniProt Q9NTJ5: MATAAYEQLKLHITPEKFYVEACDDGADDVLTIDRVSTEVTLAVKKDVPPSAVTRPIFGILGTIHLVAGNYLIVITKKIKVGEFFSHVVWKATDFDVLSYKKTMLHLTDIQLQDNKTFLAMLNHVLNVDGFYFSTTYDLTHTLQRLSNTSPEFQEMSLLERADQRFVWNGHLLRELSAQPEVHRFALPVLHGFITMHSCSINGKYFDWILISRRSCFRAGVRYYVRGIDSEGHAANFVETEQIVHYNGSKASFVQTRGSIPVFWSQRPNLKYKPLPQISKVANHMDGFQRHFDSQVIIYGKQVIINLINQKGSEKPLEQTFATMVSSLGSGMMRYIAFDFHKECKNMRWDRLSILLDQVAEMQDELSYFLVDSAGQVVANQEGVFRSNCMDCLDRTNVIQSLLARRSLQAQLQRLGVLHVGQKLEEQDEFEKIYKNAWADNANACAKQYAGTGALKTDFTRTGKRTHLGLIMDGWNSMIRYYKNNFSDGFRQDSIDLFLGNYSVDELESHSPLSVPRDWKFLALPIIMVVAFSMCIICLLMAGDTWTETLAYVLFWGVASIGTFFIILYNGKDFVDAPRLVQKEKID
UniProt Q9HB40: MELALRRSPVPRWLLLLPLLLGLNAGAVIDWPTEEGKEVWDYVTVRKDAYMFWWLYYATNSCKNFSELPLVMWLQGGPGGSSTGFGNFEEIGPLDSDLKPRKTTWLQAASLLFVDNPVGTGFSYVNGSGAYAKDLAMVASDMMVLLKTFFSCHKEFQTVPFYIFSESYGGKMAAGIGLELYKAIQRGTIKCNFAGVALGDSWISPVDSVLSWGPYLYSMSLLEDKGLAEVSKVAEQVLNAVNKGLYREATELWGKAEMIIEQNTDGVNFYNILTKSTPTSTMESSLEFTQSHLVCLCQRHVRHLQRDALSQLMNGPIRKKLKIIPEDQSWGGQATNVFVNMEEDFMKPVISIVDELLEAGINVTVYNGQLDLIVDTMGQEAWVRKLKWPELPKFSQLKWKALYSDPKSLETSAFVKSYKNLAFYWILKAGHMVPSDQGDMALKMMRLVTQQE
UniProt P55735: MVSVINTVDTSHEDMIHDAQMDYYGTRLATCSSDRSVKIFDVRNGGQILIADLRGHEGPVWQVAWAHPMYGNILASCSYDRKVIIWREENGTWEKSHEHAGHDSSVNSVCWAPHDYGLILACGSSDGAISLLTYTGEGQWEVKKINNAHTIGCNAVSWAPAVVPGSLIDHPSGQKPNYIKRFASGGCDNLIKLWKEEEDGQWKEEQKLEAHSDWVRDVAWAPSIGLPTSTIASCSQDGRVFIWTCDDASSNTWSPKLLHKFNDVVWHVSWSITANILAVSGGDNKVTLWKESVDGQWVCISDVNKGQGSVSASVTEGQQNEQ
UniProt Q9Y224: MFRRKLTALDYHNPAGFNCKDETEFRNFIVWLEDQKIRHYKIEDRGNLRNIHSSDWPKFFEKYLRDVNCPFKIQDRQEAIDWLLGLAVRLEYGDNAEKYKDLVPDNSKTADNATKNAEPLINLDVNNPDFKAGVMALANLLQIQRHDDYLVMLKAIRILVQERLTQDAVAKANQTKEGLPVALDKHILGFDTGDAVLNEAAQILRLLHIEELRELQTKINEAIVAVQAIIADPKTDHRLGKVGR
UniProt P31949: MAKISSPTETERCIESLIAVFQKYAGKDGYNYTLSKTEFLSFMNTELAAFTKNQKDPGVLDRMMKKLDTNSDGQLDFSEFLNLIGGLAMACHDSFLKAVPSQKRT
UniProt Q9UBE0: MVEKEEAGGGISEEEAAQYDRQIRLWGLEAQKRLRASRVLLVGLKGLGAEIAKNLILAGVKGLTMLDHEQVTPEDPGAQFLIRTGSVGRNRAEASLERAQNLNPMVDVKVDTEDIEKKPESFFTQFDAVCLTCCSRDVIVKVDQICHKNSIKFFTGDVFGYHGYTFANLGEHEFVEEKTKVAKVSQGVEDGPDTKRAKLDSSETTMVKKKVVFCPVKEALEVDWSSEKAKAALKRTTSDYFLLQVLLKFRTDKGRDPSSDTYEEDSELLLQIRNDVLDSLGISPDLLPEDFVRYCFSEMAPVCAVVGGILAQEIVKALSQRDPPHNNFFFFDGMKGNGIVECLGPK
UniProt Q99584: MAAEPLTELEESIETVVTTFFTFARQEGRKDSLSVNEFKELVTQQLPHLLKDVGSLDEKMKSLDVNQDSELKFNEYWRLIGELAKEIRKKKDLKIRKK

Experiments:
Test in all cases: log2 fold change, soluble protein after heating vs DMSO (PISA); higher = thermal stabilisation; K562 cells, 10 uM, 30 min; active = over 0.2 and 3.5 SD of the protein, either way, in both replicates (recomputed)
[1] = compound: C1=CC=C(C=C1)[C@H](COC2=CC3=C(C=C2)NC(=O)N3)NC(=O)C4=CC=CN(C4=O)CC5=CC(=C(C=C5)F)F
Outline: (§1)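 Thermal stability values are relative to control samples and come from duplicates. They are expressed as log2 fold changes. For measurement, K562 cells (2×10^6 cells/mL) received 10 μM compound for 30 min, and aliquots were heated for 3 min over 48°C-58°C, pooled, and extracted at 4°C in PBS with 0.5% NP-40. Soluble protein, the supernatant after 21,000xg for 90 min, was quantified by TMTpro 16plex LC-MS/MS with equalised channel sums.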

[2] = compound: CC1=C(SC2=C1C(=N[C@H](C3=NN=C(N32)C)CC(=O)N)C4=CC=C(C=C4)Cl)C
Outline: as §1

[3] = compound: CC1=C2C(=CC=C1)N=C(N(C2=O)C3=CC=CC=C3C)CN4C=NC5=C(N=CN=C54)N
Outline: as §1

[4] = compound: Cc1sc2c(c1C)C(c1ccc(Cl)cc1)=N[C@@H](CC(=O)OC(C)(C)C)c1nnc(C)n1-2
Outline: as §1

[5] = compound: c1ccc([C@@H]2C[C@H]2NC2CCNCC2)cc1
Outline: as §1

Measured: log2 fold change

SEC24D isoform 2 (UniProt O94855)
inactive: [1] -0.026 | [2] 0.11 | [3] 0.099 | [4] -0.005 | [5] -0.008

SACM1L (UniProt Q9NTJ5)
inactive: [1] 0 | [2] 0.048 | [3] 0.064 | [4] -0.044 | [5] 0.006

SCPEP1 (UniProt Q9HB40)
inactive: [1] 0.006 | [2] -0.006 | [3] -0.001 | [4] 0.007 | [5] -0.007

SEC13 isoform 3 (UniProt P55735)
inactive: [1] -0.094 | [2] -0.02 | [3] 0.033 | [4] 0.043 | [5] 0.01

RTRAF (UniProt Q9Y224)
inactive: [1] 0.001 | [2] -0.027 | [3] -0.027 | [4] 0.078 | [5] -0.005

S100A11 (UniProt P31949)
inactive: [1] 0.03 | [2] 0.118 | [3] 0.066 | [4] -0.136 | [5] -0.017

SAE1 (UniProt Q9UBE0)
inactive: [1] -0.011 | [2] 0.069 | [3] 0.047 | [4] -0.007 | [5] 0

S100A13 (UniProt Q99584)
inactive: [1] -0.008 | [2] 0.029 | [3] -0.005 | [4] -0.015 | [5] -0.004
